Data as given in PubChem BioAssay AID652272 (Drosophila RNAi Screening Center, 2013)
The deposit covers about 21,000 reagents; shown is an unselected part of those that have a named target and a result. Over the whole deposit, 503 (2.4%) are marked active. 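Raw plate light values, not normalised; calls rest on replicate z-scores that were not deposited; hits include reporter decreases as well as increases.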 Not stated in the record: the amount of reagent, the time to read-out.

Aim: 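Finding fly genes that regulate Hedgehog signal transduction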 (primary screen)
Cells: Drosophila clone 8 (Cl8) cells
Reagent: long dsRNA against Drosophila genes
Measured: 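Firefly light from a Hedgehog-responsive ptc promoter reporter and Renilla reference light, both read on a plate reader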
Direction: firefly Hh reporter signal: higher = more ptc reporter light; Renilla reference signal: higher = more Renilla control light
Active means: 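Called a hit if the two-replicate mean z-score lies below -2 or above +3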
Calls: active = hit: reporter lowered or raised; inactive = not a hit

The first 2 records as a preview:
no.	predicted target	amplicon	firefly Hh reporter signal, replicate 1	firefly Hh reporter signal, replicate 2	firefly Hh reporter signal, replicate 3	Renilla reference signal, replicate 1	Renilla reference signal, replicate 2	activity call
1	D19B	DRSC11134	46685	37872		3532	2640	inactive
2	CG11158	DRSC19389	76011	2.35e5		3032	10140	inactive

The list itself, repeating the preview:
no.	predicted target	amplicon	firefly Hh reporter signal, replicate 1	firefly Hh reporter signal, replicate 2	firefly Hh reporter signal, replicate 3	Renilla reference signal, replicate 1	Renilla reference signal, replicate 2	activity call
1	D19B	DRSC11134	46685	37872		3532	2640	inactive
2	CG11158	DRSC19389	76011	2.35e5		3032	10140	inactive
3	CG1552	DRSC19665	96250	1.97e5		2577	8331	inactive
4	Mlp84B	DRSC12596	59661	85363		2752	2642	inactive
5	CG15120	DRSC06542	87574	66797		1779	4326	inactive
6	CG8520	DRSC07206	84200	58473		3383	2418	inactive
7	Npc2d	DRSC14551	91041	1.00e5		3204	2923	inactive
8	Swim	DRSC04334	59869	61864		2583	2125	inactive
9	pio	DRSC04386	87096	81143		3276	3205	inactive
10	Wee1	DRSC03635	1.37e5	60877		3992	6689	inactive
11	Gnpnat	DRSC15405	1.43e5	1.05e5		3456	2377	inactive
12	CG7627	DRSC03065	66779	93522		3056	3612	inactive
13	Nplp1	DRSC04370	87012	62055		4304	2461	inactive
14	nito	DRSC05943	46218	32379		2378	1504	inactive
15	Ir75c	DRSC10190	87084			5115	2378	inactive
16	CG11893	DRSC14429	6.83e5	1.56e5		32624	4628	inactive
17	CG33281	DRSC00421	93792	35564		2389	3995	inactive
18	CG10996	DRSC19363	95475	1.94e5		2904	7357	inactive
19	CG30411	DRSC04004	1.48e5	2.08e5		3308	9476	inactive
20	HipHop	DRSC10734	78231	65003		3788	2737	inactive
21	CG15109	DRSC06536	81248	58849		1104	4240	inactive
22	CG16898	DRSC06635	92016	53799		2354	3651	inactive
23	CG42521	DRSC10154	18112	62902	65289	5284	5798	inactive
